Results on three molecules are retold here after article PMC8744257.

These are yes or no findings as the source states them, for the method shown. Binding seen in cells or lysates may run through a third protein. Here binding means that the protein was enriched with, or labelled near, the bait; the list need not be complete. Sequences can lack the tags named with a protein.

Test [1] concerns the target T1, endogenously 3xHA-tagged CLUH protein (mESCs knock-in) (mouse (endogenous in E14 mESCs)) (UniProt Q5SW19).
T1 sequence: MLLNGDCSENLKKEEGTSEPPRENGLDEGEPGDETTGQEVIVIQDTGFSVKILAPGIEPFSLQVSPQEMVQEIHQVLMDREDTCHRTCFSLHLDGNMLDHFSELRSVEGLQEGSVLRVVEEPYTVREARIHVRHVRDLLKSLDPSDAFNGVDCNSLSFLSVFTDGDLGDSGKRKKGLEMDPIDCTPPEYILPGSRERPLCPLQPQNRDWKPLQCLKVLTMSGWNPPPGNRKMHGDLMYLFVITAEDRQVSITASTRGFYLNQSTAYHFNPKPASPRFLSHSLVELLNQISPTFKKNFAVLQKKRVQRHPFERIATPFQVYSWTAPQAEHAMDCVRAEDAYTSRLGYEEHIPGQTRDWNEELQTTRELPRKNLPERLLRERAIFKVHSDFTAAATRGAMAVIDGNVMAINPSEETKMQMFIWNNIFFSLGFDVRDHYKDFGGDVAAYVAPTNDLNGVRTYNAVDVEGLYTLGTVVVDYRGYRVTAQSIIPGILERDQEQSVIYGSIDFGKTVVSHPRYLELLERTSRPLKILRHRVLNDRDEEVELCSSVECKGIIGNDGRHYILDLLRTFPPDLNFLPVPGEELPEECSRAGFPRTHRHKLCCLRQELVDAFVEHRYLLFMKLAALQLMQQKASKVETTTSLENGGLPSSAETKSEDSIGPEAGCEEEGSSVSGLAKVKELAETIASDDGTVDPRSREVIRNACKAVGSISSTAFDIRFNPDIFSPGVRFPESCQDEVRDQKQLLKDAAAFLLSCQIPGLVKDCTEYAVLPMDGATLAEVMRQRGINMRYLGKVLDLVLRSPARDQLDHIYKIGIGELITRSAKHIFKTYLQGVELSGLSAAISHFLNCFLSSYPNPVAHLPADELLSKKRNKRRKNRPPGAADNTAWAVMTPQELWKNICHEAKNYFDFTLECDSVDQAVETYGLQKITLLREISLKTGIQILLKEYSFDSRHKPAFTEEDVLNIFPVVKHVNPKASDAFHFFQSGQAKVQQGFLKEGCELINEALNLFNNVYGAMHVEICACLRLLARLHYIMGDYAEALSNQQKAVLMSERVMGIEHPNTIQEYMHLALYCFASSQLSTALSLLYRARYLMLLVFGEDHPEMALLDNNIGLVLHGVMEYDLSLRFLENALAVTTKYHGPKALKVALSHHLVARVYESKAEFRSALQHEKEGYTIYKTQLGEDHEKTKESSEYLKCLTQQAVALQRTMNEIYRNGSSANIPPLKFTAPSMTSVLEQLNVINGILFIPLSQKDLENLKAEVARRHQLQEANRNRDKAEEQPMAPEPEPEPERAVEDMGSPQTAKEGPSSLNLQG
Put plainly: affinity purification with mass spectrometry; anti-HA-coupled beads on extracts of mESCs with endogenously 3xHA-tagged CLUH (clone G12); wild-type cells as IP mock; LC-MS/MS, three replicates.

For test [2], the target named is T2, human CLUH fused to TurboID in N-terminal (TurboID-CLUH) (human) (UniProt O75153).
T2 sequence: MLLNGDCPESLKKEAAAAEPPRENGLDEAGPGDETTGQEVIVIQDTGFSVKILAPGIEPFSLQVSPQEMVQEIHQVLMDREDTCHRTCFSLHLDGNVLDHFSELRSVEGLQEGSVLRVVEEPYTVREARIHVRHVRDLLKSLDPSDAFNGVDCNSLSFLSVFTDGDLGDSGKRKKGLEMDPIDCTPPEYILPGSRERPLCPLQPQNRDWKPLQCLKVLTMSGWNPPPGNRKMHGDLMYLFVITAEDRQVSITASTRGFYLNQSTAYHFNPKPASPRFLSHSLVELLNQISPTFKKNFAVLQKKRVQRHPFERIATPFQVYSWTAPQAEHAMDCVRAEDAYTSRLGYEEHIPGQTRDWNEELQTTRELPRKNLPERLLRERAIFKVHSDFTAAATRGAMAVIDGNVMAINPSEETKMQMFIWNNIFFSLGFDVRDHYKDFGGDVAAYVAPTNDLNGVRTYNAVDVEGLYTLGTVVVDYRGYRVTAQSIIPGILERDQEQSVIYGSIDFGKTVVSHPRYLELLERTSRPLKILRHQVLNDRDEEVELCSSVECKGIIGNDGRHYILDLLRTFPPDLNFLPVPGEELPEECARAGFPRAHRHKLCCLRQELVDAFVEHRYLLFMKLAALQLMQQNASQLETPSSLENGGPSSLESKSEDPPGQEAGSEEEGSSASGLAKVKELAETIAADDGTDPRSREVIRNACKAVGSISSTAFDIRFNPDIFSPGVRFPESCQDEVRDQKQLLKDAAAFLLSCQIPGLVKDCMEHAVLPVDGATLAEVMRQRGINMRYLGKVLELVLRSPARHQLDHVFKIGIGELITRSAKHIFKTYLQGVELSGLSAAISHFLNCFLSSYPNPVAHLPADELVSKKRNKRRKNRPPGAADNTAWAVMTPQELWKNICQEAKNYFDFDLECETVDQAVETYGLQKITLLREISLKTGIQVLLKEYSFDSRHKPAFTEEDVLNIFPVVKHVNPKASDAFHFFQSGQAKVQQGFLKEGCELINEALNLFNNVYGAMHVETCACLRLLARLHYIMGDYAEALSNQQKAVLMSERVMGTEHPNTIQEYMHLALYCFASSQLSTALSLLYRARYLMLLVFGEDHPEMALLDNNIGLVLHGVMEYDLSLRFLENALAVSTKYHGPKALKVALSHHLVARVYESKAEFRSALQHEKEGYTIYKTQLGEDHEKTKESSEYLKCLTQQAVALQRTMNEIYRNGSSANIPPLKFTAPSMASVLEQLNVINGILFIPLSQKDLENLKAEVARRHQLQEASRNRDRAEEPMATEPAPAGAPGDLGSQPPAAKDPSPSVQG
Put plainly: proximity labelling; TurboID in HCT116 stably expressing TurboID-CLUH, control TurboID-GFP; 30 min and 16 h, 50 μM biotin; streptavidin beads; LC-MS/MS.

In test [3] the target is T3, mouse CLUH (mCLUH) protein fused, in N-terminal, to a modified biotin ligase protein (BioID2-CLUH) (mouse) (UniProt Q5SW19).
T3 sequence: T1 sequence
Put plainly: proximity labelling; BioID in HCT116 stably expressing BioID2-mCLUH, control GFP-BioID2; 24 h, 50 μM biotin; streptavidin beads; LC-MS/MS, three replicates.

Test [4] concerns the target T4, mouse CLUH (mCLUH) protein tagged with a triple HA epitope (3xHA) (mouse) (UniProt Q5SW19).
T4 sequence: T1 sequence
Nature of the test: affinity purification with mass spectrometry; anti-HA-coupled beads on extracts of HCT116 stably expressing 3xHA-mCLUH; wild-type cells as IP mock; LC-MS/MS, three replicates, spectral counting, FC 2 and 10% FDR.

B1: KNSTRN (endogenous, mESCs) (protein, UniProt Q9D9Z1 1-312)
chain: MAAPEAEAQETAFRTTGPPTDSEPRPFPPSSRKFPFESAAADSNEDWAVAAEHYLKGSGENGGWEQPAPGVQPSHPATMASAKTVCDAQPHSMPSCGLPADTQTRATSKLPVKSKEADLLRHLHPGGPEPDVTKVTKSRRENGQVKAAETASRRNLRNSYKPFNKQKPEEELKDKNELLEAVNKQLHQKLTETQGELKDLTQKVELLEKFQDNCLALLESKGLNPGQETLASKQEPTTDHTDSMLLLETLKDELKVFNETAKKQMEELQALKVKLKLKEEESVQFLEQQTLCKDEASDFTIILEEMEQLLEM
Turning to B1, in test [1], the binding entry is reported as “binds”.

B2: SPAG5 (endogenous, mESCs) (protein, UniProt Q7TME2 1-1165)
chain: MWRVKTLNLGLSPSPQKGKPAMSTPLRELKLQPEALADSGKGPSMISALTPYLCRLELKERCNNSSPVDFINTENNFLSEQFSHPSTHIEACQRESDPTPESNSLFHTLEEAIETVDDFVVDPRDDSIVESMVLLPFSLGQQQDLMLQAHLDTTAERTKSSLNESLGLEDLVGKEVAPCVEDSLTEIVAIRPEQPTFQDPPLGPSDTEDAPVDLVPSENVLNFSLARLSPSAVLAQDFSVDHVDPGEETVENRVLQEMETSFPTFPEEAELGDQAPAANAEAVSPLYLTSSLVEMGPREAPGPTVEDASRIPGLESETWMSPLAWLEKGVNTSVMLQNLRQSLSFSSVLQDAAVGNTPLATCSVGTSFTPPAPLEVGTKDSTSETERLLLGCRPPDLATLSRHDLEENLLNSLVLLEVLSHQLQAWKSQLTVPHREARDSSTQTDSSPCGVTKTPKHLQDSKEIRQALLQARNVMQSWGLVSGDLLSLLHLSLTHVQEGRVTVSQESQRSKTLVSSCSRVLKKLKAKLQSLKTECEEARHSKEMALKGKAAAEAVLEAFRAHASQRISQLEQGLTSMQEFRGLLQEAQTQLIGLHTEQKELAQQTVSLSSALQQDWTSVQLNYGIWAALLSWSRELTKKLTAKSRQALQERDAAIEEKKQVVKEVEQVSAHLEDCKGQIEQLKLENSRLTADLSAQLQILTSTESQLKEVRSQHSRCVQDLAVKDELLCQLTQSNKEQATQWQKEEMELKHIQAELLQQQAVLAKEVQDLRETVEFIDEESQVAHRELGQIESQLKVTLELLRERSLQCETLRDTVDSLRAELASTEAKHEKQALEKTHQHSQELRLLAEQLQSLTLFLQAKLKENKAESEIILPSTGSAPAQEHPLSNDSSISEQTPTAAVDEVPEPAPVPLLGSVKSAFTRVASMASFQPTETPDLEKSLAEMSTVLQELKSLCSLLQESKEEATGVLQREICELHSRLQAQEEEHQEALKAKEADMEKLNQALCLLRKNEKELLEVIQKQNEKILGQIDKSGQLINLREEVTQLTQSLRRAETETKVLQEALEGQLDPSCQLMATNWIQEKVFLSQEVSKLRVMFLEMKTEKEQLMDKYLSHRHILEENLRRSDTELKKLDDTIQHVYETLLSIPETMKSCKELQGLLEFLS
On to B2, for which, in test [1], the binding entry is reported as “binds”.

B3: KNSTRN (endogenous, HCT116) (protein, UniProt Q9Y448 1-316)
chain: MAAPEAPPLDRVFRTTWLSTECDSHPLPPSYRKFLFETQAADLAGGTTVAAGNLLNESEKDCGQDRRAPGVQPCRLVTMTSVVKTVYSLQPPSALSGGQPADTQTRATSKSLLPVRSKEVDVSKQLHSGGPENDVTKITKLRRENGQMKATDTATRRNVRKGYKPLSKQKSEEELKDKNQLLEAVNKQLHQKLTETQGELKDLTQKVELLEKFRDNCLAILESKGLDPALGSETLASRQESTTDHMDSMLLLETLQEELKLFNETAKKQMEELQALKVKLEMKEERVRFLEQQTLCNNQVNDLTTALKEMEQLLEM
For the molecule B3, the binding result in test [2], in test [3] and in test [4] was “binds” throughout.
